# Results of single-concentration screens

Protein sequences, listed by entry. Tags and fused reporters are not part of them. Residues count along the entry.
UniProt A4I591, 1-473: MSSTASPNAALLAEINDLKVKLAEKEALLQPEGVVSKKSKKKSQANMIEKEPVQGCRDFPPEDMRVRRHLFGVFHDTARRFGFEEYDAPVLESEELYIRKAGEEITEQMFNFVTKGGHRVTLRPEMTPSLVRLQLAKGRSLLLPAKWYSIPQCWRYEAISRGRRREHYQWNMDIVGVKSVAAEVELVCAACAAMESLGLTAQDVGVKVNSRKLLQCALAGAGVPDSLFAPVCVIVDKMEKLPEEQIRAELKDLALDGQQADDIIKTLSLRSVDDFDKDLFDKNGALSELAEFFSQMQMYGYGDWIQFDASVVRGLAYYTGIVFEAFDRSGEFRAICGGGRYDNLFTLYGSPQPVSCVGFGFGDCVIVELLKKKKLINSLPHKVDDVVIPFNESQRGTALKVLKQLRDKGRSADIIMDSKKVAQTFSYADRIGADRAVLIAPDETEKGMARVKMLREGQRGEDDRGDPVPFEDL
UniProt P9WPC5, whole entry: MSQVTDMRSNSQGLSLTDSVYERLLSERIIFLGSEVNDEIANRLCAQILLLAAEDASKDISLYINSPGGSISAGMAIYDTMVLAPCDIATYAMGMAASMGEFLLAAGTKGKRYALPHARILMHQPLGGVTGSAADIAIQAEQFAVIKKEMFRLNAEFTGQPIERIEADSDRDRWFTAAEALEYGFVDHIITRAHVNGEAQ
UniProt P9WPC3, whole entry partner: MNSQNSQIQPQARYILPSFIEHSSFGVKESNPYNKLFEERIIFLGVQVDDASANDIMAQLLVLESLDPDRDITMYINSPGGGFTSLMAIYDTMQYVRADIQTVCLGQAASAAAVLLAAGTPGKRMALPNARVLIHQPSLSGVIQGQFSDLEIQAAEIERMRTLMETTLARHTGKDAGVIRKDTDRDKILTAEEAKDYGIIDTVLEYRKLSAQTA

From ChEMBL document CHEMBL3988442, “University of Dundee, Small-Polar-MMV Screening Library” (2021).

LiHisRS: 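Histidine-tRNA ligase, Leishmania infantum (UniProt A4I591). Enzyme assay of histidyl-tRNA synthetase; the read-out is not stated. Concentration: 30 µM. Higher reads as stronger inhibition (inferred: compounds with an IC50 in retests scored well above the rest). The assay is labelled LdHisRS but filed under L. infantum. Size under these conditions: about 69,000 compounds, about 410 of them at 50% or above in at least one test.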
Toxoplasma: 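Assay of Toxoplasma gondii numbers, read through their beta-galactosidase reporter with a colour substrate. Tested at 10 µM. Higher reads as fewer parasites (inferred from which compounds were picked for retests). Size under these conditions: about 67,000 compounds, about 260 of them at 50% or above in at least one test.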
ClpP1P2: 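Protease assay of ClpP1P2, read by the AMC dye that it sets free. Target: ClpP1P2, Mycobacterium tuberculosis (UniProt P9WPC5 and UniProt P9WPC3). Compounds at 50 µM. Higher reads as stronger inhibition, judged from the few compounds that gave an IC50. Most other retested compounds had strongly negative values. About 69,000 compounds were tested under these conditions; 0.015% (about 10) showed 50% or more at least once.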
T. brucei: 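Whole-parasite assay of Trypanosoma brucei over 72 hours; the read-out is not stated. Tested at 30 µM. Higher reads as stronger inhibition (inferred: compounds with an IC50 in retests scored well above the rest). Values scatter widely below zero; nearly all retest evidence comes from the higher of the two concentrations used. About 64,000 compounds were tested under these conditions; 1.5% (about 940) showed 50% or more at least once.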
Leishmania in macrophages: 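Cell assay of Leishmania donovani living inside macrophages; the read-out is not stated. Compounds at 30 µM. The record gives no direction; compounds that gave an IC50 in retests scored well above the rest, so higher reads as stronger inhibition. Size under these conditions: about 69,000 compounds, about 1,000 of them at 50% or above in at least one test.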

Results are given as percent effect. How 0% and 100% were set is not recorded. Most values in the screen are low, and negative values occur. Compounds were drawn at random from those tested, without regard to their results.

For Fc1ccc(CN2CCCC(c3nccnc3-n3ccnc3)C2)cc1 (centres undefined) the result was LiHisRS: 8%; Toxoplasma: -9.893%; ClpP1P2: -3.66%; T. brucei: -21.45%; Leishmania in macrophages: -9.839%. Result for COc1nsc2nc(C3CCCN3C(C)=O)ccc12 (centres undefined) was LiHisRS: 9.79%; Toxoplasma: 13.69%; ClpP1P2: -16.33%; T. brucei: -22.06%; Leishmania in macrophages: -40.64%. Cc1cccc(NC(=O)N2CCC3(CCC(C(=O)N(C)C)O3)CC2)c1 (centres undefined) gave LiHisRS: 3.96%; Toxoplasma: 1.41%; ClpP1P2: -2.667%; T. brucei: -3.544%; Leishmania in macrophages: 9.078%. CN(C)CCNC(=O)Cc1cccc(I)c1 gave LiHisRS: -0.8772%; Toxoplasma: -1.658%; ClpP1P2: 2.322%; T. brucei: -17.27%; Leishmania in macrophages: -7.853%. O=C(NCCc1ccccc1)N1CCC(C2OCCO2)CC1 read LiHisRS: 23.08%; Toxoplasma: 17.52%; ClpP1P2: 2.704%; T. brucei: 5.61%; Leishmania in macrophages: 19.68%. Result for CNC(=O)C1CN(c2ncccn2)CCN1Cc1ccccc1 (centres undefined) was LiHisRS: 7.143%; Toxoplasma: -1.112%; ClpP1P2: -24.03%; T. brucei: -14.67%; Leishmania in macrophages: 8.112%. CC(C)(C)c1nccc(N2CCCCC2CNS(C)(=O)=O)n1 (centres undefined) gave LiHisRS: 11.5%; Toxoplasma: 10.42%; ClpP1P2: -19.01%; T. brucei: -21.56%; Leishmania in macrophages: 6.47%. COCCN(CCC#N)S(=O)(=O)c1cc(F)cc(F)c1 gave LiHisRS: 3.03%; Toxoplasma: 3.868%; ClpP1P2: 2.585%; T. brucei: -34.33%; Leishmania in macrophages: -3.59%.

With Nc1ncccc1CN1C[C@@H](C(=O)O)[C@H](c2cccc(F)c2)C1 the screen gave LiHisRS: 22.22%; Toxoplasma: -4.241%; ClpP1P2: -3.574%; T. brucei: -10.63%; Leishmania in macrophages: 41.16%. CC(C)c1ncc2c(n1)CN(Cc1noc(-c3ccccc3)n1)CC2 read LiHisRS: 21.43%; Toxoplasma: -4.74%; ClpP1P2: -60.56%; T. brucei: -12.2%; Leishmania in macrophages: -24.33%. O=C(O)C(F)(F)F.[H][C@@]12CN(Cc3ccc(CC)o3)C[C@]1([H])OCCN2c1ccnc(N(C)C)n1 read Toxoplasma: -10%; T. brucei: 39.49%; Leishmania in macrophages: 55.16%. Cc1cnc(-c2nc(C3CCN(Cc4ccccc4Cl)CC3)no2)cn1 gave LiHisRS: 7.194%; Toxoplasma: 0.07634%; ClpP1P2: -12.22%; T. brucei: 9.234%; Leishmania in macrophages: 29.7%. With COc1cc(F)cc2sc(NC(=O)COCC3CCCO3)nc12 (centres undefined) the screen gave LiHisRS: -6.218%; Toxoplasma: 3.328%; ClpP1P2: 0.9304%; T. brucei: -65.73%; Leishmania in macrophages: 9.832%. With c1cnc(N2CCC(C3CCN(CCCn4cccn4)C3)CC2)nc1 (centres undefined) the screen gave LiHisRS: 14.17%; Toxoplasma: 8.219%; ClpP1P2: 0.384%; T. brucei: -4.804%; Leishmania in macrophages: 24.05%. With O=C(C1CCOC1)N1CCc2ncnc(NC3CCC3)c2CC1 (centres undefined) the screen gave LiHisRS: 10.53%; Toxoplasma: -5.972%; ClpP1P2: -14.81%; T. brucei: -97.36%; Leishmania in macrophages: 13.34%. COc1ccc(NC(=O)N2CCOCC(CN(C)C)C2)c(C)c1 (centres undefined) gave LiHisRS: 3.101%; Toxoplasma: -3.728%; ClpP1P2: -6.613%; T. brucei: -17.66%; Leishmania in macrophages: 1.723%.